Measured values published in PubChem BioAssay AID504444 (National Center for Advancing Translational Sciences (NCATS), 2011).
Where “and” joins values, the source holds several entries; their conditions need not be identical. Equal values may be shown once. Screen size: about 360,000 compounds; about 7,500 (2.1%) were called active. This list was built around the results that the source calls inconclusive (neither active nor inactive); the mix of calls is not that of the screen. Calls come from the whole dose curve; as a rule, active = well fitted inhibition curve with a large enough effect; inconclusive = small, poorly fitted or top-dose-only effect, or effect the other way; inactive = flat fitted curve, though single readings scatter. Potencies beside an inconclusive call are fits to weak or partial responses and may not hold up.
Potency is the fitted concentration of half-maximal effect.

Test: Nrf2 qHTS screen for inhibitors; note: nearly all actives have a fitted effect of over 60% in size
Details: A549 ARE-Fluc reporter, luciferase luminescence, 18-24 h; series mostly up to 46 µM
Outline: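 Cells were seeded and rested 2 h, then exposed to compounds for 18-24 h. CellTiter-Fluor was read first as a viability measure. BugLite was added 15 min before the final luminescent read of ARE-luciferase activity in A549 cells.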
For `O=C(Nc1ccc(CN2CCOCC2)cc1)c1ccc(Br)o1`, the Potency was inconclusive: 3.26 µM [activator, partial curve].
For `Cn1c(CC(=O)NNC(=O)c2ccc(F)cc2F)nc2ccccc21`, the Potency was inconclusive: 25.9 µM [falling, single point].
For `O=C(CSc1ccc(Cl)cc1)Nc1ccccc1N1CCN(C(=O)c2ccc(Cl)cc2)CC1`, the Potency was inconclusive: 32.6 µM [falling, partial curve, poor fit].
For `CCOC(=O)c1c(C)[nH]c(C)c1S(=O)(=O)N1CCCC(C(=O)Nc2ccc(OC)c(Cl)c2)C1` (configuration not stated), the Potency was inconclusive: 29.1 µM [activator, single point].
With `O=c1c2c3c(sc2nc(NCCO)n1-c1ccccc1)CCCC3` the Potency was inconclusive: 18.4 µM [falling, single point].
For `C(C#CCCCCCCCCC[n+]1ccccc1)#CCCCCCCCCC[n+]1ccccc1`, the Potency was active: 18.4 µM and active: 11.6 µM.
For `CC1=NN(C(=O)c2ccc(Cn3cc(Br)c([N+](=O)[O-])n3)o2)C(O)(C(F)(F)F)C1` (configuration not stated), the Potency was “inactive”.
In the case of `CCN(C(=O)C=Cc1ccco1)c1ccccc1`, the Potency is reported as “inactive”.
For `CC(=O)c1ccc(N2CCC(c3cc(-c4ccc(Cl)cc4)n[nH]3)CC2)c([N+](=O)[O-])c1`, the Potency was inconclusive: 13 µM [falling, partial curve, poor fit].
With `Cc1sc2nc(C3CC3)nc(N3CCN(C(=O)c4ccccc4F)CC3)c2c1C` the Potency was inconclusive: 29.1 µM [falling, single point].
For `O/N=C/c1ccccc1OCc1ccccc1F`, the Potency was “inactive”.
With `Clc1cccc(N2CCN(CCCN3CCN(c4ccccc4)CC3)CC2)c1` the Potency was inconclusive: 20.6 µM [falling, single point].
In the case of `COc1cc(CN(C)c2ccc(S(=O)(=O)N3CCCC3)cn2)ccc1OC(F)F`, the Potency is reported as inconclusive: 18.4 µM [falling, single point].
For `Cc1ccc(C(=O)NCC(=O)N/N=C/c2sccc2C)cc1[N+](=O)[O-]`, the Potency was inconclusive: 29.1 µM [falling, single point].
In the case of `COc1cccc(CNC(=O)CSc2c3c(nc4ccc(Cl)cc24)CCCC3)c1OC`, the Potency is reported as inconclusive: 32.6 µM [falling, single point].
For `CC1(C)CC(=O)C2=C(C1)N(Cc1ccco1)C(=O)NC2(C(F)(F)F)C(F)(F)F`, the Potency was “inactive”.
In the case of `Cc1c(CCC(=O)N2CCC[C@H]2C(=O)O)c(=O)oc2cc3oc4c(c3cc12)CCCC4`, the Potency is reported as inconclusive: 2.59 µM [falling, full curve].
With `O=C(NCCCCNC(=O)c1cccs1)c1cccs1` the Potency was inconclusive: 0.461 µM [falling, partial curve, poor fit].
For `c1cncc(-c2nc3ccccc3s2)c1`, the Potency was inconclusive: 8.2 µM [activator, partial curve].
For `Nc1c(N(CCC2=CCCCC2)C(=O)COc2ccc(F)cc2)c(=O)[nH]c(=O)n1Cc1ccccc1`, the Potency was inconclusive: 0.0259 µM [falling, full curve, poor fit].
For `COc1ccc(CNc2cccc3[nH]c(C(F)(F)F)nc23)cc1`, the Potency was inconclusive: 16.4 µM [falling, single point].
With `O=C(COc1ccccc1Br)NC(=O)NC1CCCC1` the Potency was inconclusive: 16.4 µM [activator, partial curve].
In the case of `COc1ccccc1/C=C/C(=O)N1CCN(S(=O)(=O)c2cc(C)ccc2C)CC1`, the Potency is reported as active: 16.4 µM.
For `O=C(Nc1ccncc1Cl)c1ccncc1`, the Potency was “inactive”.
For `Nc1ccc(C(=O)N/N=C/c2cn(Cc3cccc(F)c3)c3ccccc23)cc1`, the Potency was inconclusive: 11.6 µM [falling, partial curve].
In the case of `CCOC(=O)c1nc(Nc2ccc(C(=O)OCC(C)C)cc2)c2ccccc2n1`, the Potency is reported as “inactive”.
With `O=C(CCc1cn(Cc2ccccc2F)c2ccccc12)NCc1ccc(Cl)cc1` the Potency was inconclusive: 16.4 µM [falling, partial curve, poor fit].
For `CCc1ccc2c(c1)C(=O)c1ccccc1C2=O`, the Potency was inconclusive: 20.6 µM [activator, partial curve].
For `CCN(C(=O)CSc1nnc(Cn2nnc3ccccc32)o1)c1nc(C)cs1`, the Potency was inconclusive: 13 µM [falling, partial curve].
For `CCOC(=O)C1CCCN(C(=O)c2cc(-c3ccccc3)on2)C1` (configuration not stated), the Potency was inconclusive: 16.4 µM [activator, partial curve, poor fit].
With `NC(=O)c1ccc(N2CCN(c3ccccc3F)CC2)c([N+](=O)[O-])c1` the Potency was inconclusive: 14.6 µM [falling, partial curve, poor fit].
In the case of `CCN(CC)S(=O)(=O)c1ccc(N(C)Cc2cccc(OC)c2OC)nc1`, the Potency is reported as inconclusive: 32.6 µM [falling, single point].
With `CCOC(=O)c1cc2c(=O)n3ccccc3nc2n(C(C)C)c1=NC(=O)c1c(-c2ccccc2Cl)noc1C` the Potency was inconclusive: 3.26 µM [falling, single point].
In the case of `CN(CC(=O)Nc1ccccc1Cl)C(=O)c1cccc(S(=O)(=O)N2CCN(c3ccc(F)cc3)CC2)c1`, the Potency is reported as active: 5.17 µM.
In the case of `CCCCC(=O)Oc1c(S(=O)(=O)c2ccc(C)cc2)c(C)nn1C(C)(C)C`, the Potency is reported as inconclusive: 18.4 µM [falling, single point].
With `S=C(c1ccc(-c2ccccc2Cl)o1)N1CCCCC1` the Potency was inconclusive: 9.2 µM [activator, partial curve].
For `NC(=O)C1CCCN(CC(O)COCc2ccc(Cl)cc2)C1` (configuration not stated), the Potency was inconclusive: 20.6 µM [activator, single point].
In the case of `COc1cc(C(=O)O/N=C(\N)c2ccncc2)cc(OC)c1OC`, the Potency is reported as inconclusive: 4.11 µM [falling, partial curve, poor fit].
For `CCCCNc1c(-c2ccc(-c3ccc(OC)cc3)c(OC)c2)nc2ccccn12`, the Potency was inconclusive: 14.6 µM [falling, partial curve].
In the case of `COc1ccccc1-c1nnc(SC2CCc3ccccc3NC2=O)s1` (configuration not stated), the Potency is reported as inconclusive: 29.1 µM [falling, single point].
With `O=C(COC(=O)/C=C/c1ccco1)Nc1ccccc1` the Potency was “inactive”.
In the case of `COc1ccccc1NC(=O)NCc1ccco1`, the Potency is reported as inconclusive: 1.16 µM [falling, full curve].
